Results published in article PMC4778861, “Type One Protein Phosphatase 1 and Its Regulatory Protein Inhibitor 2 Negatively Regulate ABA Signaling” (PLoS Genetics, 2016).
These are yes or no findings as the source states them, for the method shown. Some entries that bind do so weakly or less than the wild type. Sequences can lack the tags named with a protein.

Chains of the proteins cited; added tags and fusions are not shown.
UniProt P30366: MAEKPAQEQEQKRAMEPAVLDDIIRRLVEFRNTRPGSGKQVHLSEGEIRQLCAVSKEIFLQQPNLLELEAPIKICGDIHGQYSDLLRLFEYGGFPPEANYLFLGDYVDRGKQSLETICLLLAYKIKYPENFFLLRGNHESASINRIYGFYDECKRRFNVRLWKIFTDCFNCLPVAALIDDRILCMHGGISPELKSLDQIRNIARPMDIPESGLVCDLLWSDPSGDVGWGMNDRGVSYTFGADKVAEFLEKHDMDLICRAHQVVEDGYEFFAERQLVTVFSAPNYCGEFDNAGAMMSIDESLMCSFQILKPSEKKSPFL

Columns and labels:
[1] = target: T1, BD-PYL9 (Arabidopsis thaliana) (UniProt Q84MC7); assay: two-hybrid; AD fusions with BD-PYLs in S. cerevisiae AH109; growth on SD medium lacking Leu, Trp, His in the absence of ABA
T1 sequence: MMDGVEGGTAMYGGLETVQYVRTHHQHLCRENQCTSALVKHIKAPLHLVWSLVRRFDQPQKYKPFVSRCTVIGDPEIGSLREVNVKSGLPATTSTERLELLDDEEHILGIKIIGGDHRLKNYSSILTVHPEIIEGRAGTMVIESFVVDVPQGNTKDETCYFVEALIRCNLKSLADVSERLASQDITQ

[2] = target: T2, BD-PYL11 (Arabidopsis thaliana) (UniProt Q9FJ50); assay: as above
T2 sequence: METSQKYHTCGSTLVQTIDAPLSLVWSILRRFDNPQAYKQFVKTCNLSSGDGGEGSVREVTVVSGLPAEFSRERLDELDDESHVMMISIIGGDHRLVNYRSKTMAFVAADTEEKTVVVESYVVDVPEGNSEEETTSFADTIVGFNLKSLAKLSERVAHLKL

[3] = target: T3, BD-PYL4 (Arabidopsis thaliana) (UniProt O80920); assay: as above
T3 sequence: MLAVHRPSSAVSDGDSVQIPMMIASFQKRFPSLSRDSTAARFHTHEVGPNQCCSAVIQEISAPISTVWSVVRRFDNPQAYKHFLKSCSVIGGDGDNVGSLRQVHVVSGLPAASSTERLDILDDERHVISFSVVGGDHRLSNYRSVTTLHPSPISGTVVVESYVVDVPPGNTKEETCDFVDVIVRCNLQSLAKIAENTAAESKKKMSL

[4] = target: T1, BD-PYL9 (Arabidopsis thaliana); assay: two-hybrid; AD fusions with BD-PYLs in S. cerevisiae AH109; growth on SD medium lacking Leu, Trp, His in the presence of 10 uM ABA
[5] = target: T2, BD-PYL11 (Arabidopsis thaliana); assay: as above
[6] = target: T3, BD-PYL4 (Arabidopsis thaliana); assay: as above
[7] = target: T4, BD-SnRK2.6 (Arabidopsis thaliana) (UniProt Q940H6); assay: two-hybrid; AD fusions (pGADT7) with BD fusions in S. cerevisiae AH109; growth on SD medium lacking Leu, Trp, His in the absence or presence of 10 uM ABA (the text does not tell the two apart); 1 mM 3-AT to reduce self-activation of BD-SnRK2s; 30°C
T4 sequence: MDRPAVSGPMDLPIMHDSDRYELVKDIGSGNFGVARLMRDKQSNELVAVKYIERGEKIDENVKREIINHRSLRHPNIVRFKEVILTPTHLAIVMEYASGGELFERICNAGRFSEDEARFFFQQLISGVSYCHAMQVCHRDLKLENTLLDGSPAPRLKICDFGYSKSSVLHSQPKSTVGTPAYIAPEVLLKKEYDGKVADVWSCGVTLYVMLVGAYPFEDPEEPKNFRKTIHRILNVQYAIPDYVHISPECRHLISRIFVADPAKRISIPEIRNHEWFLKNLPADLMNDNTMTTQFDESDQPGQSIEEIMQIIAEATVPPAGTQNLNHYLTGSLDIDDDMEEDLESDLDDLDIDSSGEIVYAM

[8] = target: T5, BD-SnRK2.3 (Arabidopsis thaliana) (UniProt Q39193); assay: as above
T5 sequence: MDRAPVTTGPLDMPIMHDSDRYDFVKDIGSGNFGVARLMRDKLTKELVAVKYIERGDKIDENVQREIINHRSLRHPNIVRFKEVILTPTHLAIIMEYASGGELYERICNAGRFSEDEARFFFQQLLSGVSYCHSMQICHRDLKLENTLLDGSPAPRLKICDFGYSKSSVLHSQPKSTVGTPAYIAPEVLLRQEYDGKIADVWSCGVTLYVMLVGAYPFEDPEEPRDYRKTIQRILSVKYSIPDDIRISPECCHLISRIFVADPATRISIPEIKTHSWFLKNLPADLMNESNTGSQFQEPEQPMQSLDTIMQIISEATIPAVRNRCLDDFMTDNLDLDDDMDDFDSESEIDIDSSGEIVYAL

[9] = target: T6, BD-SnRK2.8 (Arabidopsis thaliana) (UniProt Q9M9E9); assay: as above
T6 sequence: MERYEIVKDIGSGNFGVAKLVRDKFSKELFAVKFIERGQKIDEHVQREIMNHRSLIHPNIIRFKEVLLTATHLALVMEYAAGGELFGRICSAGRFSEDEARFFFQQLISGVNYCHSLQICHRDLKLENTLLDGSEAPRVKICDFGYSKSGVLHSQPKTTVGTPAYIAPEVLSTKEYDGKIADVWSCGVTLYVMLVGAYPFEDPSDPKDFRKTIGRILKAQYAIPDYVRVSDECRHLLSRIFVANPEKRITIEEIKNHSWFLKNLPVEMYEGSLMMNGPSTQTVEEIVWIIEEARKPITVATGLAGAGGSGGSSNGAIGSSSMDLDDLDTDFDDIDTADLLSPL

[10] = target: T7, BD-SnRK2.4 (Arabidopsis thaliana) (UniProt P43291); assay: as above
T7 sequence: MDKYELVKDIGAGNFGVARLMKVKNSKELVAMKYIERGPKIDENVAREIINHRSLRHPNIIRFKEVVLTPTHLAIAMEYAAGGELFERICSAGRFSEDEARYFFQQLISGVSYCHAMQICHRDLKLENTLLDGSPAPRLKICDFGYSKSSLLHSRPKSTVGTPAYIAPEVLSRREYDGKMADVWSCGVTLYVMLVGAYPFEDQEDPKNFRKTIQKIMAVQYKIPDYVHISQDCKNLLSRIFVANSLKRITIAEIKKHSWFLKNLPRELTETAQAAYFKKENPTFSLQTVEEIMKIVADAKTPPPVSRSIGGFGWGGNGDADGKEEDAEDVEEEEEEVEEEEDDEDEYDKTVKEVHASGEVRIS

[11] = target: T8, BD-SnRK2.2 (Arabidopsis thaliana) (UniProt Q39192); assay: as above
T8 sequence: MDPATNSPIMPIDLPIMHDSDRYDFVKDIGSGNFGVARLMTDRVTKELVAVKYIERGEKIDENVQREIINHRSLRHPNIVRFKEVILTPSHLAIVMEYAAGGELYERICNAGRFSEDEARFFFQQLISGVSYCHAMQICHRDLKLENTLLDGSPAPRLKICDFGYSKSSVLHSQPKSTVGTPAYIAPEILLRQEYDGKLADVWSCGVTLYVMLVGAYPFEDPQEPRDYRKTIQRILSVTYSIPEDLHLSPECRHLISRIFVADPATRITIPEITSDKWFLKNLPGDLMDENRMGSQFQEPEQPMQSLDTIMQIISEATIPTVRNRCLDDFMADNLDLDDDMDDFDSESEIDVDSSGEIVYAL

Measured: binding

AD-TOPP1 (from UniProt P30366 1-318) (enzyme)
binds: [1] | [2] | [3] | [4] | [5] | [6] | [7] | [8] | [9] | [10] | [11]
